In PubChem BioAssay AID493014 (National Center for Advancing Translational Sciences (NCATS), 2011):
This is one part of the list. These are further read-outs of the screen, such as a control signal, another cell line or another target. No call is given for them. The list favours compounds with an active or inconclusive main result. Potencies come from curve fits of mixed quality, noted in brackets.

Experiment: qHTS Assay to Find Inhibitors of Chronic Active B-Cell Receptor Signaling
Conditions: ABC-DLBCL IkBa-CBG/CBR reporter, luminescence ratio (green luciferase fused to IkBa over red control in TMD8 lymphoma cells), 4 h
Outline: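 Cell line TMD8 (human ABC DLBCL), stably expressing tet-inducible CBG68-IkBa fusion and CBR; IMDM/0.5% FBS; cpd up to 46 uM; dox induction, 4 h, 37C/5% CO2; dual luminescence; green/red ratio; MG132 control.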

[1] = measured here: CBR red luminescence, cell number
[2] = measured here: IkBa-CBG green luminescence

O=C(CNC(=O)c1cccs1)N/N=C/c1c[nH]c2ccccc12
AC50 [1]: 5.62 µM [falling, partial curve]

CC(NC(=O)/C(C#N)=C/c1ccc(N2CCOCC2)cc1)c1ccccc1 (stereo not given)
AC50 [1]: 6.31 µM [falling, full curve, poor fit]

CCn1c(=O)c(C(=O)CN2CC(C)OC(C)C2)c(N)n(Cc2ccccc2)c1=O (stereo not given)
AC50 [1]: 3.55 µM [rising, single point]

Cc1ccc2nc(Nc3ccc(F)cc3)c3nncn3c2c1
AC50 [1]: 1.41 µM [rising, full curve]

O=C(COc1ccc(Br)cc1Cl)c1ccc[nH]1
AC50 [1]: 10 µM [falling, single point]

CS(=O)(=O)/C(C#N)=C\c1cnc(S(=O)(=O)c2ccccc2)s1
AC50 [1]: 35.5 µM [falling, single point]

C=CCNC(=S)NNC(=O)COc1ccc2cc(Br)ccc2c1
AC50 [1]: 25.1 µM [falling, single point] | AC50 [2]: 10 µM [falling, partial curve, poor fit]

O=C(NC1CC(=O)N(c2ccc(F)cc2)C1)c1cc2ccccc2o1 (stereo not given)
AC50 [1]: 14.1 µM [rising, partial curve, poor fit]

O=C(Nc1cccc(C(F)(F)F)c1)Oc1ccc(Cl)c2cccnc12
AC50 [1]: 4.47 µM [rising, partial curve, poor fit] | AC50 [2]: 5.62 µM [falling, single point]

O=C(Nc1ccccc1F)c1ccncc1
AC50 [1]: 4.11 µM [falling, partial curve, poor fit]

CCOC(=O)C1CCN(C(=O)c2sc3nc(-c4ccccc4)cn3c2C)CC1
AC50 [1]: 32.6 µM [falling, single point]

Cc1ccn2cc(-c3ccc(Br)cc3)nc2c1
AC50 [1]: 12.6 µM [falling, partial curve]

Cc1nc2c(C(=O)NCc3ccccc3Cl)cnn2c(C)c1Cc1c(F)cccc1Cl
AC50 [1]: 2.51 µM [rising, partial curve, poor fit]

CCc1ccc(C(=O)COC(=O)c2ccco2)cc1
AC50 [1]: 4.47 µM [rising, full curve]

O=C1c2ccccc2C(=O)N1OCCOCCOCCBr
AC50 [1]: 7.31 µM [falling, single point]

CCCCOc1ccc(C(=O)NCCc2cccs2)cc1
AC50 [1]: 2.24 µM [rising, partial curve, poor fit]

COc1ccc(CNCC(O)(c2ccccc2)c2ccc(F)cc2)cc1 (stereo not given)
AC50 [1]: 17.8 µM [falling, single point]

Clc1ccc(-c2nnc(-c3ccc(Br)cc3)c(N3CCSCC3)n2)cc1
AC50 [1]: 7.08 µM [falling, partial curve]

Cc1cccc(NC(=O)CNC(=O)Cn2ncc(Cl)c(Cl)c2=O)c1C
AC50 [1]: 6.51 µM [falling, full curve, poor fit]

CCCCCn1c(NC2CCCCC2)nc2c1c(=O)[nH]c(=O)n2C
AC50 [1]: 35.5 µM [rising, single point]

N/C(=N\OC(=O)C(c1ccccc1)c1ccccc1)c1ccccn1
AC50 [1]: 20.6 µM [rising, partial curve]

O=c1[nH]c(-c2ccccn2)nc(C(F)(F)F)c1Br
AC50 [1]: 22.4 µM [rising, single point] | AC50 [2]: 31.6 µM [falling, single point]

O=C(COC(=O)Cc1ccccc1F)Nc1cccc(S(=O)(=O)NC2=NCCCCC2)c1
AC50 [1]: 7.08 µM [rising, partial curve, poor fit]

O=C1Nc2c(ccc(Cl)c2Cl)C(=O)C1(F)c1ccccc1 (stereo not given)
AC50 [1]: 35.5 µM [falling, single point]

O=C(Nc1cccc(-c2csc(Nc3ccccc3)n2)c1)c1cc([N+](=O)[O-])cc(C(F)(F)F)c1
AC50 [1]: 3.98 µM [rising, full curve]

CCSc1nnc(NC(=O)c2ccc(C)cc2)s1
AC50 [1]: 9.2 µM [falling, partial curve, poor fit]

CCC(CC)C(=O)Nc1ccc(C)c(O)c1
AC50 [1]: 7.94 µM [rising, partial curve, poor fit]

CC(=O)Oc1ccccc1C(=O)NC(C)CCc1ccccc1 (stereo not given)
AC50 [1]: 35.5 µM [falling, single point]

COc1cc(-c2noc(C)c2-c2ccc(N(C)C)nc2)cc(OC)c1OC
AC50 [1]: 5.01 µM [rising, partial curve] | AC50 [2]: 2.24 µM [falling, partial curve]

COc1ccccc1N(CC(=O)N(CC(C)C)CC(C)C)S(=O)(=O)c1cccs1
AC50 [1]: 17.8 µM [falling, single point] | AC50 [2]: 15.8 µM [rising, partial curve, poor fit]

Cc1ccsc1C(=O)OCC(=O)NCc1ccc2c(c1)OCO2
AC50 [1]: 0.1 µM [rising, full curve, poor fit]

Cc1nc(SCC(=O)N2CCN(c3ccccc3)CC2)c2oc3ccccc3c2n1
AC50 [1]: 20 µM [falling, partial curve]

COc1cccc2c1OCC(C(=O)OCc1cccnc1)=C2
AC50 [1]: 35.5 µM [falling, single point]

COc1cc(/C=N/Nc2ccccc2[N+](=O)[O-])cc(OC)c1O
AC50 [1]: 0.891 µM [rising, full curve, poor fit]

O=C(COc1ncnc2sccc12)N1CCN(S(=O)(=O)c2ccc(Cl)cc2)CC1
AC50 [1]: 6.51 µM [rising, partial curve, poor fit]

CSc1cccc(NC(=O)C(C)Sc2ccc(C)cc2)c1 (stereo not given)
AC50 [1]: 0.146 µM [falling, full curve, poor fit]

C=CCc1c(C)nc2c(OC)cccc2c1Cl
AC50 [1]: 1.26 µM [rising, partial curve, poor fit]

Cc1ccc(C(NC(=O)N2CCCCC2)=C(Cl)Cl)cc1F
AC50 [1]: 7.31 µM [falling, partial curve, poor fit]

O=C(O)C1Cc2c([nH]c3ccccc23)C(c2ccc3c(c2)OCO3)N1 (stereo not given)
AC50 [1]: 10 µM [falling, partial curve, poor fit]

Cn1cc(/C=N/n2cnc3sc4c(c3c2=O)CCCC4)c2ccccc21
AC50 [1]: 0.112 µM [falling, full curve, poor fit]

CCCc1oc2ccc(NS(=O)(=O)c3ccc(OC)cc3)cc2c1C(=O)OCC
AC50 [1]: 3.55 µM [rising, partial curve, poor fit] | AC50 [2]: 3.98 µM [falling, partial curve, poor fit]

Cc1ccc(-c2[nH]c3ccccc3c2C(C[N+](=O)[O-])c2ccco2)cc1 (stereo not given)
AC50 [1]: 13 µM [falling, partial curve, poor fit]

COC(=O)c1sc(NC(=O)COc2ccccc2)nc1C
AC50 [1]: 1.16 µM [falling, full curve]

Clc1ccc(-c2n[nH]c3c2CCCC3)cc1
AC50 [1]: 0.794 µM [rising, full curve, poor fit]

Cc1ccc(OCCOCCn2ccnc2)c(Br)c1
AC50 [1]: 28.2 µM [rising, single point]

Cc1cc(C)nc(/N=C(\N)Nc2ccccc2-c2ccccc2)n1
AC50 [1]: 5.62 µM [falling, full curve, poor fit]

O=C(Nc1nccs1)c1ccc(N2C(=O)C3CCCCC3C2=O)cc1 (stereo not given)
AC50 [1]: 8.91 µM [falling, partial curve] | AC50 [2]: 0.282 µM [rising, full curve]

Cc1ncn2cc(-c3ccc(Cl)cc3Cl)[nH]c(=O)c12
AC50 [1]: 3.16 µM [falling, full curve, poor fit]

CC(C)c1ccc(C(=O)OC2CCOC2=O)cc1 (stereo not given)
AC50 [1]: 14.1 µM [falling, partial curve, poor fit]

Cc1c(C)n(C)c2ccc(C(=O)NCCN3CCOCC3)cc12
AC50 [1]: 14.1 µM [rising, single point]

CCc1ccc(/C=C2\Oc3c(ccc(O)c3CN3CCN(CCO)CC3)C2=O)cc1
AC50 [1]: 3.55 µM [rising, partial curve, poor fit]

COc1cccc(/C=C/C(=O)Nc2ccc(OC)nc2)c1
AC50 [1]: 9.2 µM [falling, partial curve]

CC1CCc2c(nc3ncnn3c2NCCN(C)C)C1 (stereo not given)
AC50 [1]: 11.2 µM [rising, partial curve, poor fit]

Cc1ccc(/C=N/NC(=O)c2ccc3ccccc3c2)s1
AC50 [2]: 12.6 µM [falling, single point]

O=[N+]([O-])c1ccc(-c2cc(-c3ccncc3)nc3ccc4ccccc4c23)cc1
AC50 [1]: 1.41 µM [rising, partial curve]

O=C(CCCC(=O)N1CCN(c2ccccc2F)CC1)c1ccccc1
AC50 [1]: 10 µM [rising, single point]

COc1cccc(OC)c1C(=O)Nn1c(-c2cccs2)nc2ccccc2c1=O
AC50 [1]: 0.184 µM [rising, full curve, poor fit]

O=C1CCCc2c1cc(C(=O)NCc1ccco1)c(=O)n2-c1ccc(Cl)cc1
AC50 [1]: 1.64 µM [falling, full curve, poor fit]

CSc1ccc(C#N)cc1NC(=O)c1ccc(Cl)cc1
AC50 [1]: 1.64 µM [rising, full curve, poor fit]

C=CCn1c(=O)c2c3c(sc2n2c(Nc4ccccc4)nnc12)CCCC3
AC50 [1]: 0.366 µM [falling, full curve, poor fit] | AC50 [2]: 0.411 µM [rising, full curve]

Cc1c(OCC(=O)NCCCN2CCOCC2)ccc2c1oc(=O)c1ccccc12
AC50 [1]: 12.6 µM [rising, single point]

COc1ccc(S(=O)(=O)n2nc(OC(=O)c3c(-c4ccccc4Cl)noc3C)cc2N)cc1
AC50 [1]: 7.94 µM [falling, partial curve, poor fit]
